Library screening results

Amino acid sequences for entries named in this document (tags omitted).
UniProt E9BF75, entry or part of it: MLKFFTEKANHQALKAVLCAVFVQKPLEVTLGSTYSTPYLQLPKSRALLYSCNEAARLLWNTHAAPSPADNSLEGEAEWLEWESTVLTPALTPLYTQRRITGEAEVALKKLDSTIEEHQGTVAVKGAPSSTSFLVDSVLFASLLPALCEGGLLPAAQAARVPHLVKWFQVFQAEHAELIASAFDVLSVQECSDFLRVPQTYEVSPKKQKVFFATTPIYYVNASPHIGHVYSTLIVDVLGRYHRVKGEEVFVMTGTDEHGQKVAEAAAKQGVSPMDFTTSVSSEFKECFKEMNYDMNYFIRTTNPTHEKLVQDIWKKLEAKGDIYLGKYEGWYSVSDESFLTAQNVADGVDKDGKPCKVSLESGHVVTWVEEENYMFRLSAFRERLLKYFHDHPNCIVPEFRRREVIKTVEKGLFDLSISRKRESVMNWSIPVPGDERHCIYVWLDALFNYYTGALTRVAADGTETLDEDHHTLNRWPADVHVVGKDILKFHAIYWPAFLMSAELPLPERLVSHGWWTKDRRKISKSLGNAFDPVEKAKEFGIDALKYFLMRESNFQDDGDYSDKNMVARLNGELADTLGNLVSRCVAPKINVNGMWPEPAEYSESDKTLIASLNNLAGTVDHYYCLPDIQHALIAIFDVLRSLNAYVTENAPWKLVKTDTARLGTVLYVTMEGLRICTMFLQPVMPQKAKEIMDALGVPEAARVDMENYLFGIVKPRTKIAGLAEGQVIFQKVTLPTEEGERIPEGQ

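Primary screen of methionyl-tRNA synthetase; the read-out is not stated. Target: Methionyl-tRNA synthetase (putative), Leishmania donovani (UniProt E9BF75). The test concentration is not given. The values are filed as inhibition. Size under these conditions: about 68,000 compounds, about 24 of them at 50% or above in at least one test.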

All values are in %. The record does not define 0% and 100%; most values in the screen are far below 50% and negative numbers occur (in some assays of this library far below -100). This is an unselected part of the compounds tested.

compound,Inhibition
Cn1cc(C(=O)N[C@H]2CN(S(C)(=O)=O)[C@@H]3CCCO[C@H]23)cn1,12.59
CCCc1nc(N[C@H]2COC[C@@H]2N2CCCCC2)c2cnn(C)c2n1,9.524
COc1ncccc1CNc1cc(N2CCCC2CO)ncn1 (centres undefined),5.263
Cc1nn(C)c(C)c1C1CCCN1C(=O)CCCNc1ncccn1 (centres undefined),20.45
O=C(c1ccc(C2CCCO2)s1)N1CCN(c2ccccc2F)CC1 (centres undefined),13.41
Cc1cccc(CNC2CC3(CCN(CCO)CC3)c3ccccc32)n1 (centres undefined),8.312
CCS(=O)(=O)N1C[C@H]2CN(Cc3cccnc3)C(=O)[C@H]2C1,2.857
CC(C)N(C)C(=O)c1ccc(CNc2ncc(C#N)cc2Cl)cc1,3.621
CC(C)OCCC(=O)NCCc1csc(N2CCCC2)n1,5.305
Nc1nc(SCc2ccc3c(c2)OCO3)ns1,8.571
COc1ccc(C)cc1C(=O)NC1(C#N)CCOCC1,19.89
CCCc1nnc(NC2CCN(CCO)CC2)o1,12.32
CCc1nnc2n1CCN(C(=O)CCc1ccc3c(c1)OCO3)C2,12.14
Cc1ccc(C(=O)N(C)Cc2ccc(Br)s2)c(=O)[nH]1,19.15
c1cnc(N2CCCC3(CCN(Cc4ccncc4)C3)C2)nc1 (centres undefined),15.82
COc1ncccc1CN1CCn2c(Cn3cncn3)cnc2C1,-0.3484
COCCNC(=O)Nc1ccc(-n2cncn2)c(C(F)(F)F)c1,13.68
CCc1cc(NC2CCN(Cc3ccccc3F)CC2)n2nccc2n1,0.4963
CN1CC(NC(=O)CCCc2cc(Cl)sc2Cl)CCC1=O (centres undefined),0.7916
CCCNC(=O)N1CCc2ccc(S(=O)(=O)N3CCN(C)CC3)cc2C1,7.419
CCC(Nc1ncnc2sc(C(=O)O)c(C)c12)c1ccnn1C (centres undefined),17.87
COC(CNC(=O)c1cn(C)nn1)c1ccc(C)s1 (centres undefined),6.211
O=C(NCCc1nc(C2CC2)no1)[C@H]1CNC[C@H](C(=O)N2CCCC2)C1,8.589
COCC(=O)Nc1nccn1Cc1ccc(Br)cc1,13.9
CNC(=O)c1ccc(C2CCCN(C(=O)c3sc(C)nc3C)C2)nc1 (centres undefined),9.646
CCC(C)N(Cc1sccc1C)C(=O)c1ccc2cccnc2n1 (centres undefined),17.49
Cc1c(COc2ccccc2)cccc1NC(=O)N1CC[C@H](O)C1,15.86
Cc1nc(C2CCCN2CCCS(N)(=O)=O)no1 (centres undefined),14.21
CCN(CC)C(=O)c1nnc2ccc(N3CCOCC3)cc2n1,10.37
O=C(CSCC1CC1)N1CCCN(c2ccc(F)cc2)CC1,2.872
Cc1ccc(N2CC[C@H]3O[C@H](C(=O)NCc4ccco4)CC[C@H]32)nn1,2.614
O=C(c1cnccn1)N1CCC2(CCCN(Cc3ccoc3)C2)C1 (centres undefined),-1.37
N#Cc1cc(F)ccc1NCC1CCS(=O)(=O)CC1,6.211
COc1ccc2c(OCC(=O)NC(C)(C)C)ccnc2c1,17.46
CCC(=O)N1CCCC(C(=O)N2CCN(c3cnn(C)c(=O)c3)CC2)C1 (centres undefined),5.455
COCc1cccc(C(=O)N2C[C@H]3CC[C@@H]2CN(Cc2cscn2)C3)n1,-0.9174
Cc1nc(C(NC(=O)c2cc(C(C)C)[nH]n2)c2ccccc2)n[nH]1 (centres undefined),13.92
CCC1=N[C@@]2(CC[C@@H]3CN(S(=O)(=O)N(C)C)C[C@@H]32)C(=O)N1CC(C)C,20.59
CC(=O)N1CCC2(CC1)CN(C)CC[C@H]2C(F)(F)F,13.04
COc1ccc(CNC2CCCN(Cc3noc(C)n3)C2)cc1F (centres undefined),10.12
Cc1ccc(-c2n[nH]cc2CNCC2CCS(=O)(=O)C2)o1 (centres undefined),4.348
O[C@@H]1CCN(CC2CC2)[C@H]1Cc1ccccc1,10.09
O=S(=O)(NCC(O)c1ccc2c(c1)CCO2)c1ccccc1F (centres undefined),15.6
CSc1ccc(C(=O)C2CCCN(C(=O)CCn3cnnn3)C2)cc1 (centres undefined),5.714
Cc1ccc(O)c(C(=O)N2CCCC(NC(=O)C(C)C)C2)c1 (centres undefined),14.81
COc1cc(N2CCC3(CC2)CC(N2CCN(C)CC2)CO3)ncn1 (centres undefined),6.667
CC(C)Oc1cccc(C(=O)Nc2nncs2)c1,2.801
COCCn1cc(NC(=O)NCC(C)N2CCOCC2)cn1 (centres undefined),7.317
O=c1oc(-c2ccc(F)cc2)nn1CN1CCSCC1,13.39
CC(C)CCN1N=C(C(=O)N2CCCCCC2)S(=O)(=O)c2ccccc21,7.453
Cc1ccc(C)c(NC(=O)c2cc(S(=O)(=O)N3CCSCC3)c[nH]2)c1,1.592
O=C(O)Cc1cnc(-c2c(Cl)cccc2Cl)s1,11.29

Some entries from above, unchanged:

| compound | Inhibition |
|---|---|
| `COCC(=O)Nc1nccn1Cc1ccc(Br)cc1` | 13.9 |
| `Cc1ccc(N2CC[C@H]3O[C@H](C(=O)NCc4ccco4)CC[C@H]32)nn1` | 2.614 |
| `O=C(CSCC1CC1)N1CCCN(c2ccc(F)cc2)CC1` | 2.872 |
| `CCC(Nc1ncnc2sc(C(=O)O)c(C)c12)c1ccnn1C` (centres undefined) | 17.87 |
| `c1cnc(N2CCCC3(CCN(Cc4ccncc4)C3)C2)nc1` (centres undefined) | 15.82 |

The values are deposited in ChEMBL (CHEMBL3988442, “University of Dundee, Small-Polar-MMV Screening Library” (2021)).